Reference: PubChem BioAssay AID330 (DTP/NCI, 2004)
The list is a part of this screen's results and no random one: it is rich in T/C values a quarter to a half above the control, in often repeated tests (any T/C) and in doses without a T/C. Other doses and runs of a compound stand elsewhere. T/C: endpoint of the treated group in % of that of the vehicle group. Some doses have a count of surviving animals in place of a T/C: the source files T/C as zero there, which appears to mark a toxic dose or a test without result, not a measured value. Some survivor counts are full or nearly so, which does not show that the dose was tolerated: survival well below the control is almost never listed, so the zero probably covers shortened survival too. Survivors were counted at the toxicity check, usually on the fifth day, unless a day is given; later deaths do not show. Schedule codes are those of the source, read here as Q, the interval in days (D) or hours (H), X, the number of doses. Some doses were run more than once; the results are listed from low to high. For survival time, the PubChem record calls one and a half times the control and up active, and a quarter to a half above the control has no call in these data; cut-offs in other NCI protocols can differ. Additions like (4×) stand for listed records that agree. Some T/C values are followed by the survivors on the day toxicity was checked, most often the fifth; where none is given, no animal had died by that day.

System: P388 leukemia ip, CD2F1 mice, survival T/C
Test: NCI In Vivo Anticancer Drug Screen. Data for tumor model P388 Leukemia (intraperitoneal) in CD2F1 (CDF1) mice
Conditions: T/C endpoint: median survival time, higher T/C = longer survival
[1] = dose: 3.13 mg/kg/injection, schedule: Q01DX009 (ip), vehicle: saline with Tween-80
[2] = dose: 6.25 mg/kg/injection, schedule: Q01DX009 (ip), vehicle: saline with Tween-80
[3] = dose: 12.5 mg/kg/injection, schedule: Q01DX009 (ip), vehicle: saline with Tween-80
[4] = dose: 25.0 mg/kg/injection, schedule: Q01DX009 (ip), vehicle: saline with Tween-80
[5] = dose: 50.0 mg/kg/injection, schedule: Q01DX009 (ip), vehicle: saline with Tween-80
[6] = dose: 100.0 mg/kg/injection, schedule: Q01DX009 (ip), vehicle: saline with Tween-80
[7] = dose: 200.0 mg/kg/injection, schedule: Q01DX009 (ip), vehicle: saline with Tween-80
[8] = dose: 400.0 mg/kg/injection, schedule: Q01DX001 (ip), vehicle: saline with Tween-80
[9] = dose: 50.0 mg/kg/injection, schedule: Q01DX009 (ip), vehicle: saline
[10] = dose: 100.0 mg/kg/injection, schedule: Q01DX009 (ip), vehicle: saline
[11] = dose: 200.0 mg/kg/injection, schedule: Q01DX009 (ip), vehicle: saline
[12] = dose: 200.0 mg/kg/injection, schedule: Q01DX005 (ip), vehicle: Klucel (hydroxypropylcellulose) (HPC)
[13] = dose: 240.0 mg/kg/injection, schedule: Q01DX005 (ip), vehicle: saline with Tween-80
[14] = dose: 200.0 mg/kg/injection, schedule: Q01DX005 (ip), vehicle: saline with Tween-80
[15] = dose: 200.0 mg/kg/injection, schedule: Q01DX009 (ip), vehicle: suspension in saline
[16] = dose: 100.0 mg/kg/injection, schedule: Q01DX005 (ip), vehicle: Klucel (hydroxypropylcellulose) (HPC)

With `CN(C)CCN1C(=O)c2cccc3cc([N+](=O)[O-])cc(c23)C1=O` the T/C (dose: 0.78 mg/kg/injection, schedule: Q01DX009 (ip), vehicle: saline with Tween-80) was 128 % of control, the T/C (dose: 1.56 mg/kg/injection, schedule: Q01DX009 (ip), vehicle: saline with Tween-80) was 101 (2×), 128, 129 % of control and the T/C (dose: 3.12 mg/kg/injection, schedule: Q01DX009 (ip), vehicle: saline with Tween-80) was 140 % of control. For the same compound, the T/C [1] was 141 % of control, the T/C [2] was 118, 142, 144, 151 % of control and the T/C [3] was 126, 144, 171 % of control. The survivor count [3] was 6 of 6, the survivor count [4] was 6 of 6 and the survivor count [5] was 0 of 6. For the same compound, the survivor count [6] was 0 of 6 and the survivor count [7] was 0 of 6.
In the case of `c1ccc2[nH]c(N=Nc3cccc4ccccc34)cc2c1`, the survivor count (dose: 50.0 mg/kg/injection, schedule: Q01DX009 (ip), vehicle: other) is reported as 6 of 6, the T/C [7] is reported as 125 % of control and the survivor count (dose: 400.0 mg/kg/injection, schedule: Q01DX009 (ip), vehicle: other) is reported as 4 of 6 and 5 of 6.
With `CC1CCP(c2ccccc2)C1` (stereo not given) the survivor count [8] was 2 of 6.
For `c1ccc(CSC2=NCCN2)cc1`, the survivor count (dose: 25.0 mg/kg/injection, schedule: Q01DX009 (ip), vehicle: saline) was 3 of 6, the survivor count [9] was 3 of 6 and the survivor count [10] was 0 of 6. For the same compound, the survivor count [11] was 0 of 6.
With `CCN(CC)Cc1cc(N=Nc2ccc(N(C)C)cc2)ccc1O` the survivor count [8] was 6 of 6.
With `N=C(N)c1ccc2[nH]c(/C=C/c3cc4ccc(C(=N)N)cc4o3)cc2c1` the T/C (dose: 12.5 mg/kg/injection, schedule: Q04DX003 (ip), vehicle: suspension in saline) was 134 % of control, the T/C (dose: 25.0 mg/kg/injection, schedule: Q04DX003 (ip), vehicle: suspension in saline) was 142 % of control and the T/C (dose: 50.0 mg/kg/injection, schedule: Q04DX003 (ip), vehicle: suspension in saline) was 147 % of control [5 of 6 alive]. The survivor count (dose: 100.0 mg/kg/injection, schedule: Q04DX003 (ip), vehicle: suspension in saline) was 4 of 6, the survivor count (dose: 200.0 mg/kg/injection, schedule: Q04DX003 (ip), vehicle: suspension in saline) was 2 of 6 and the survivor count (dose: 400.0 mg/kg/injection, schedule: Q04DX003 (ip), vehicle: suspension in saline) was 0 of 6.
In the case of `COc1ccc(/C=C/C(=O)c2c(N)n(C)c(=O)n(C)c2=O)cc1`, the survivor count [12] is reported as 6 of 6.
`O=C1CC2(C(=O)N1CN1CCCCC1)c1ccccc1-c1ccccc12` was tested, and the T/C (dose: 200.0 mg/kg/injection, schedule: Q01DX009 (ip), vehicle: Klucel (hydroxypropylcellulose) (HPC)) was 126 % of control.
For `Nc1nc(Cl)nc2c1ncn2C1CCCO1` (stereo not given), the survivor count (dose: 100.0 mg/kg/injection, schedule: Q04DX002 (ip), vehicle: Klucel (hydroxypropylcellulose) (HPC)) was 0 of 6, the survivor count (dose: 200.0 mg/kg/injection, schedule: Q04DX002 (ip), vehicle: Klucel (hydroxypropylcellulose) (HPC)) was 0 of 6 and the survivor count (dose: 400.0 mg/kg/injection, schedule: Q04DX002 (ip), vehicle: Klucel (hydroxypropylcellulose) (HPC)) was 1 of 6.
`O=C1C2=C(Nc3cc([N+](=O)[O-])ccc3N2)OC1c1c[nH]c2ccc(COc3ccccc3)cc12` (stereo not given) was tested, and the survivor count [13] was 6 of 6.
In the case of `Cc1ccc2nc(N/N=C/c3cccc(C)n3)cc(C)c2c1`, the survivor count [14] is reported as 0 of 6.
In the case of `[O-]c1n[n+](-c2ccccc2)ns1`, the survivor count (dose: 50.0 mg/kg/injection, schedule: Q01DX009 (ip), vehicle: distilled water + Tween-80) is reported as 1 of 6 and 4 of 6, the survivor count (dose: 100.0 mg/kg/injection, schedule: Q01DX009 (ip), vehicle: distilled water + Tween-80) is reported as 1 of 6 and the survivor count (dose: 200.0 mg/kg/injection, schedule: Q01DX009 (ip), vehicle: distilled water + Tween-80) is reported as 0 of 6.
In the case of `COc1ccc(SC(N(C)C)=[N+](C)C)cc1`, the survivor count (dose: 120.0 mg/kg/injection, schedule: Q01DX005 (ip), vehicle: saline) is reported as 0 of 6 and the survivor count (dose: 240.0 mg/kg/injection, schedule: Q01DX005 (ip), vehicle: saline) is reported as 0 of 6.
With `[C-]#[O+].[C-]#[O+].[CH3][Sn]([CH3])[c]1ccccc1.[Fe+5].[c-]1[c-][c-][cH-][c-]1` the survivor count (dose: 400.0 mg/kg/injection, schedule: Q04DX003 (ip), vehicle: saline with Tween-80) was 2 of 6.
For `C[CH2][Sn](=[O])[CH2]C`, the T/C (dose: 6.25 mg/kg/injection, schedule: Q01DX009 (ip), vehicle: saline) was 127 % of control [4 of 6 alive], the T/C (dose: 12.5 mg/kg/injection, schedule: Q01DX009 (ip), vehicle: saline) was 137 % of control and the T/C [9] was 125 % of control [5 of 6 alive]. The survivor count [9] was 0 of 6, the survivor count [10] was 4 of 6 and the survivor count [11] was 1 of 6.
With `Nc1ccc2cc3c(nc2n1)[nH]c1ccccc13` the survivor count [5] was 4 of 5.
With `Cc1ccc(C)n1-c1ccsc1C(=O)NNC(=O)C(Cl)(Cl)Cl` the survivor count (dose: 60.0 mg/kg/injection, schedule: Q01DX005 (ip), vehicle: Klucel (hydroxypropylcellulose) (HPC)) was 0 of 6, the survivor count (dose: 120.0 mg/kg/injection, schedule: Q01DX005 (ip), vehicle: Klucel (hydroxypropylcellulose) (HPC)) was 0 of 6 and the survivor count (dose: 240.0 mg/kg/injection, schedule: Q01DX005 (ip), vehicle: Klucel (hydroxypropylcellulose) (HPC)) was 0 of 6.
`CC1CN=C(c2ccc(NC(=O)c3ccc(NC(=O)c4ccc(C5=NCC(C)N5)cc4)cc3)cc2)N1` (stereo not given) was tested, and the T/C (dose: 12.5 mg/kg/injection, schedule: Q01DX005 (ip), vehicle: saline with Tween-80) was 146 % of control, the T/C (dose: 25.0 mg/kg/injection, schedule: Q01DX005 (ip), vehicle: saline with Tween-80) was 129 [5 of 6 alive] and 146 % of control [5 of 6 alive] and the survivor count (dose: 50.0 mg/kg/injection, schedule: Q01DX005 (ip), vehicle: saline with Tween-80) was 0 of 6. For the same compound, the survivor count (dose: 100.0 mg/kg/injection, schedule: Q01DX005 (ip), vehicle: saline with Tween-80) was 0 of 6 and the survivor count [14] was 0 of 6.
With `C[N+]1(Cc2ccccc2)CCCC(O)C1` (stereo not given) the survivor count (dose: 60.0 mg/kg/injection, schedule: Q01DX005 (ip), vehicle: saline with Tween-80) was 0 of 6, the survivor count (dose: 120.0 mg/kg/injection, schedule: Q01DX005 (ip), vehicle: saline with Tween-80) was 0 of 6 and the survivor count [13] was 0 of 6.
For `COC(=O)c1ccc(/C=C(\c2ccc([N+](=O)[O-])o2)S(=O)(=O)c2ccc(NC(C)=O)cc2)o1`, the survivor count [15] was 6 of 6.
For `COc1ccc(Cc2c3ccccc3cc[n+]2C)cc1Oc1ccc(Cc2c3ccccc3cc[n+]2C)cc1`, the survivor count [1] was 0 of 6, the survivor count [2] was 0 of 6 and the survivor count [3] was 0 of 6. The survivor count [4] was 0 of 6, the survivor count [5] was 0 of 6 and the survivor count [6] was 0 of 6. For the same compound, the survivor count [7] was 0 of 6.
With `O=c1[nH]cnc2c1cnn2CN1CCOCC1` the T/C [16] was 130 % of control, the T/C [12] was 130 % of control and the survivor count [12] was 6 of 6.
For `NCC(=O)NCC(=O)NC1(C(=O)O)CCCC1`, the T/C (dose: 200.0 mg/kg/injection, schedule: Q01DX005 (ip), vehicle: saline) was 134 % of control.
`ClCc1nsc(Cl)n1` was tested, and the survivor count [16] was 0 of 6 and the survivor count [12] was 0 of 6.
`COC(=O)OC(C#N)c1ccc([N+](=O)[O-])cc1` (stereo not given) was tested, and the survivor count (dose: 100.0 mg/kg/injection, schedule: Q01DX009 (ip), vehicle: suspension in saline) was 6 of 6 and the survivor count [15] was 4 of 6.
In the case of `N#C/C(=C\c1ccccn1)c1ccc(Cl)cc1`, the survivor count (dose: 150.0 mg/kg/injection, schedule: Q01DX009 (none), vehicle: saline) is reported as 6 of 6.
In the case of `CN(C)c1c(Cl)c(=O)oc2c1ccc1nc(-c3ccccc3)ncc12`, the survivor count [13] is reported as 6 of 6.
